Results taken from the supplement of paper PMC10849652.
This is one part of the list.

Sequences of proteins named here, by UniProt entry; tags and fusion partners are left off. A change or cut given only in a name is not applied to a line headed by its entry.
UniProt Q96HY6: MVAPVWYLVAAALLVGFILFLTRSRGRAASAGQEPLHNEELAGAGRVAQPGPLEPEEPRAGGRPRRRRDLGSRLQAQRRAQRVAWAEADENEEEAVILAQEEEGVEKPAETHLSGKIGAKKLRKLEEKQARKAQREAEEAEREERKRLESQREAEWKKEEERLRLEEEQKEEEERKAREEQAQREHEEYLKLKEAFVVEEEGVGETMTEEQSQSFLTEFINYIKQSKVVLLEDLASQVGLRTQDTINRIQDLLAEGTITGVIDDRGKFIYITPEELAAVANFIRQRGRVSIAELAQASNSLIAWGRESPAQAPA
UniProt Q13561, whole entry, looked up: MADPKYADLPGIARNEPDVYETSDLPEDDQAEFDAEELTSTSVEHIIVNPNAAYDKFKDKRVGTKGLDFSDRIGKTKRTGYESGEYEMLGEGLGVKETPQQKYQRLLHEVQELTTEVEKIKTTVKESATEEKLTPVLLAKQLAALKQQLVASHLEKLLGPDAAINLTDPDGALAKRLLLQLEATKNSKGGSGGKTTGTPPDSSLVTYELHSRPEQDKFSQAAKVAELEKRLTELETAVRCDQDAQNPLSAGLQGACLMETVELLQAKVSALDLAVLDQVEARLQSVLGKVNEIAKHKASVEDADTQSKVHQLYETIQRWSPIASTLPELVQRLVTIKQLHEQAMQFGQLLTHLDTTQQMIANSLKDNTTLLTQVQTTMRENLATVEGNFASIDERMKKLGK
UniProt Q7Z4W1: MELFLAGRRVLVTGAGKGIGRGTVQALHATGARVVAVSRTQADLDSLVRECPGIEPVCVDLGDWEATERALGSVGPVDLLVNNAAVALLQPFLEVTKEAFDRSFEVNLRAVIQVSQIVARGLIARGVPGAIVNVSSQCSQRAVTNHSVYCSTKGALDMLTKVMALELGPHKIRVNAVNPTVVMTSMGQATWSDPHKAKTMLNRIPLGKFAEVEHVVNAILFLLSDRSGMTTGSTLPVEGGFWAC
UniProt Q9UHI6: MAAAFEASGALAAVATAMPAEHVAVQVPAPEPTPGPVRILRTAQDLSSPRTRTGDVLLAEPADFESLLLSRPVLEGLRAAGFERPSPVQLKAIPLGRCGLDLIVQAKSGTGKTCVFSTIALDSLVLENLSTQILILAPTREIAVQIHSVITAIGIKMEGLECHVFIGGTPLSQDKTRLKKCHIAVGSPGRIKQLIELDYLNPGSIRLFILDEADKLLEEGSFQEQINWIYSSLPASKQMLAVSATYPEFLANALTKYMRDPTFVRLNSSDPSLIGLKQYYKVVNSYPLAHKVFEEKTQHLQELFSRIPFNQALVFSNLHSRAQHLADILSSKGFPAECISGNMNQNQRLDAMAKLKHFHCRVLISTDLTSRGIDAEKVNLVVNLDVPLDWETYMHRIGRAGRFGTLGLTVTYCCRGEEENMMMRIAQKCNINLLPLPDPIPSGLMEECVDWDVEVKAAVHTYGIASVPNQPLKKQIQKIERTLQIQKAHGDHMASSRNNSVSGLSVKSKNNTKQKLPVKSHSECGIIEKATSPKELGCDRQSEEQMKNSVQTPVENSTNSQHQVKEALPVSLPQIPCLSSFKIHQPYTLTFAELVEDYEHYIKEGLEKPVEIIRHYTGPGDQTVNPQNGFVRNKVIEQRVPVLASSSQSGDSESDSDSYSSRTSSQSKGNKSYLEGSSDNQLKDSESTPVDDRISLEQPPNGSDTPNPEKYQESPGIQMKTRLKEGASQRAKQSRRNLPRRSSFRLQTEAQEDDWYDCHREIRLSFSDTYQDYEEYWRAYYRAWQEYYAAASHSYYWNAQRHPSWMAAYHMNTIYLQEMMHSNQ
UniProt Q16531, whole entry, looked up: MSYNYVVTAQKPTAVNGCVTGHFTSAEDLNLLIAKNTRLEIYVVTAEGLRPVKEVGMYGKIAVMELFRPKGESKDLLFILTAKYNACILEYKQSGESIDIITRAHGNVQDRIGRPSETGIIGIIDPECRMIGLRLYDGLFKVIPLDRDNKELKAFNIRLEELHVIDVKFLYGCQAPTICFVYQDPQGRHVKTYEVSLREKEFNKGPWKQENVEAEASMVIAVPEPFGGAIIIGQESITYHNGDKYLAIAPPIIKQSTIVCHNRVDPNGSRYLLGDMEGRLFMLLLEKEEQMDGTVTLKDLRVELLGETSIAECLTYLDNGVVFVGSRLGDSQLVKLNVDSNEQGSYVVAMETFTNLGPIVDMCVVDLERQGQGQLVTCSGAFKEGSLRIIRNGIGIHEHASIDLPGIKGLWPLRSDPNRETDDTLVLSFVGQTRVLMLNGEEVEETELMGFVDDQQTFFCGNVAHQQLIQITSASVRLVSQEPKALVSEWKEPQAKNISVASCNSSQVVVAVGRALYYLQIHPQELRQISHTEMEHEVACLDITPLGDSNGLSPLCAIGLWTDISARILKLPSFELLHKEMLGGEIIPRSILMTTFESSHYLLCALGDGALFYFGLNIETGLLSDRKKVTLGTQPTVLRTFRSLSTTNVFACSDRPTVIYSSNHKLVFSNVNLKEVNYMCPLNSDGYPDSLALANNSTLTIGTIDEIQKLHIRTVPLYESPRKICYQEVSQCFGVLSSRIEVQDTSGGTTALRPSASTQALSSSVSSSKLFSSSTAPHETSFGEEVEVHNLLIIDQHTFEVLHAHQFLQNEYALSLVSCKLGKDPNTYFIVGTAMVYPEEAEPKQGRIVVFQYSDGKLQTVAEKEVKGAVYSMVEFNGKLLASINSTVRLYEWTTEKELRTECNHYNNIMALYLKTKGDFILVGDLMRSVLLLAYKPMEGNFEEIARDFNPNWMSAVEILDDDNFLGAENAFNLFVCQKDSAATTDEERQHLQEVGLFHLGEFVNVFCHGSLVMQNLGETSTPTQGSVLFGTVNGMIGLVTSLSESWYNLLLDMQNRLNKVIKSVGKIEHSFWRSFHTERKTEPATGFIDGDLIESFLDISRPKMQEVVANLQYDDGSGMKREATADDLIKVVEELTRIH
UniProt Q8TDD1, whole entry, looked up: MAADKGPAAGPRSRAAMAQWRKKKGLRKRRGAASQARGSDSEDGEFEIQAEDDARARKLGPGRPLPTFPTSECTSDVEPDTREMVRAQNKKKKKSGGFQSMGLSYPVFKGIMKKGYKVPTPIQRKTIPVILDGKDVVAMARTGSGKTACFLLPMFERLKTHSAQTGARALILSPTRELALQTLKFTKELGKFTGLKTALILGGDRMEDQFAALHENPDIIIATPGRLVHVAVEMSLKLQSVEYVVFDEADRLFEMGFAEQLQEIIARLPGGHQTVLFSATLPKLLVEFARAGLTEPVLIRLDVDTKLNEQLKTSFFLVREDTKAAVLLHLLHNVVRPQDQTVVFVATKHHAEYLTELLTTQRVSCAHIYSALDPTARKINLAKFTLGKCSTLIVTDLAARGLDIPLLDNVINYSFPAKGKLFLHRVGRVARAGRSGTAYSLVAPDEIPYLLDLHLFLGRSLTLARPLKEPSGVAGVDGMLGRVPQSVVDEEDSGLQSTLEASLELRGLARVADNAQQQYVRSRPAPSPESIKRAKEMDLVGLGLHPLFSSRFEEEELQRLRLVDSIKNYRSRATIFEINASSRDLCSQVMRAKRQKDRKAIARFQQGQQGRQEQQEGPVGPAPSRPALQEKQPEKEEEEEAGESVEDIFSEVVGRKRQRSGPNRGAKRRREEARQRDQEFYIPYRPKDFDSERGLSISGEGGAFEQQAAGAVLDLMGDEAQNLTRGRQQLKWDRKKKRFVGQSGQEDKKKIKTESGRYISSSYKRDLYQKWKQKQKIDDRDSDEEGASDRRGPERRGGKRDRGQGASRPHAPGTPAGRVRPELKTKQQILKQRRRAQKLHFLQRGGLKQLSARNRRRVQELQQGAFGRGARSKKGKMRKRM
UniProt Q9H1C7: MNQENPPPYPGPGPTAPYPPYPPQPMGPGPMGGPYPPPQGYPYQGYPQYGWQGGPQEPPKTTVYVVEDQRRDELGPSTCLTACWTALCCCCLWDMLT
UniProt P35659: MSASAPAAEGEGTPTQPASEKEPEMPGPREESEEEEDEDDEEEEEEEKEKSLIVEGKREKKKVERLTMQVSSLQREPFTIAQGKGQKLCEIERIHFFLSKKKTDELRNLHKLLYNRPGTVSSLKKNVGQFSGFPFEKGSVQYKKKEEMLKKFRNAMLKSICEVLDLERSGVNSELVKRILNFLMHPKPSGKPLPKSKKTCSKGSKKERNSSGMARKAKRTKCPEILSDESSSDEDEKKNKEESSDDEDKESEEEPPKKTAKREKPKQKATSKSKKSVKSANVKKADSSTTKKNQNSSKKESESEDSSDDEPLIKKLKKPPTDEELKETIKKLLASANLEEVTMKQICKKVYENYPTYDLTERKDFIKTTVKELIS
UniProt Q16698: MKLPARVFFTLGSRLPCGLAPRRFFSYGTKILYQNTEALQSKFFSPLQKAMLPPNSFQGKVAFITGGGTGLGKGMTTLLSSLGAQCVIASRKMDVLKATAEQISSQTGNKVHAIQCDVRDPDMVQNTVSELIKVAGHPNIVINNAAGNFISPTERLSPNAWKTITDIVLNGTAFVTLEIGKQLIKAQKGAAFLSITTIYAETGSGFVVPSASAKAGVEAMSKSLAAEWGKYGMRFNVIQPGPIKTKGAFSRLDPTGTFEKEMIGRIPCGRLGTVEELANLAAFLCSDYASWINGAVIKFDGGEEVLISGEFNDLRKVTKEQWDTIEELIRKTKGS
UniProt Q9H773: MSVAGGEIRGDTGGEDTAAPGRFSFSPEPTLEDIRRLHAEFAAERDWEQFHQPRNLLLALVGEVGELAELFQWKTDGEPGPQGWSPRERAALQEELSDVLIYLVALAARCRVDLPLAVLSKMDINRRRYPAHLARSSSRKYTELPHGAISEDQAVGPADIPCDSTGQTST
UniProt Q9GZR7: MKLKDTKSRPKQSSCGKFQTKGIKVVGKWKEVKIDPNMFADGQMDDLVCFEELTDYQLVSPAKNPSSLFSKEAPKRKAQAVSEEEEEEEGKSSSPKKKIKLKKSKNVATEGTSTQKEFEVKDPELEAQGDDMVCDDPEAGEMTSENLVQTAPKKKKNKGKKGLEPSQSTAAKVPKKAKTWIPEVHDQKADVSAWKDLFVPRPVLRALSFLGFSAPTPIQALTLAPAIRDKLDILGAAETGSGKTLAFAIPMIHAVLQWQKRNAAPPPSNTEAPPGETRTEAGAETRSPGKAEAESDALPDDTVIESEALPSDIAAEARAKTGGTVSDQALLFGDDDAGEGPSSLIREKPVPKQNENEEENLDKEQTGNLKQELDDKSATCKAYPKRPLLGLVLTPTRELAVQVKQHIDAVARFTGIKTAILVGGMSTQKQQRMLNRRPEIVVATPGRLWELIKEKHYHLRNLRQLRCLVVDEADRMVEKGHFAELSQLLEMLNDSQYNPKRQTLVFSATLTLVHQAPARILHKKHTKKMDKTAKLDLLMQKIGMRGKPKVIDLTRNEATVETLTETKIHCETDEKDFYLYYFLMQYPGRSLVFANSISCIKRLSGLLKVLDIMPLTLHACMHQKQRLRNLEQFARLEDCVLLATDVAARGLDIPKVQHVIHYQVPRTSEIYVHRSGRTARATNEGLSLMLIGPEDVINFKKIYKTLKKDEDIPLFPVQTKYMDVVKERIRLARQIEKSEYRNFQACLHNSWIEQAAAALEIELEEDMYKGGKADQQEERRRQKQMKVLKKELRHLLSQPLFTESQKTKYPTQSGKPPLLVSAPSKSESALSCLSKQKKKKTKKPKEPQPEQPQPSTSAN
UniProt Q9NY93: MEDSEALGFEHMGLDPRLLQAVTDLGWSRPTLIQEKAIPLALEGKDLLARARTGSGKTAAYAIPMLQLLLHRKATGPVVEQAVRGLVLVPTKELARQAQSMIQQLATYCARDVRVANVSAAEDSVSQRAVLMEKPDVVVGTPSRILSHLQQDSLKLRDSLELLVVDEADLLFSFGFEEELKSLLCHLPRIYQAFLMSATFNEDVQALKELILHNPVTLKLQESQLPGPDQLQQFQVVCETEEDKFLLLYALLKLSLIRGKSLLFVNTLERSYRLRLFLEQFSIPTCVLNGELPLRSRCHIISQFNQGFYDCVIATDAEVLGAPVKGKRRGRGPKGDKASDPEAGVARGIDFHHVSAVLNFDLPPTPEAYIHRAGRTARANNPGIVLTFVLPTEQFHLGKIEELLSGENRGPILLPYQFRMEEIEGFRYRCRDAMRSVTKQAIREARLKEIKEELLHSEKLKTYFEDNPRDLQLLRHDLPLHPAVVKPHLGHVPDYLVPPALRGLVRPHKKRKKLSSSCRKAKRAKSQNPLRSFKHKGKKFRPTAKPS
UniProt P07108: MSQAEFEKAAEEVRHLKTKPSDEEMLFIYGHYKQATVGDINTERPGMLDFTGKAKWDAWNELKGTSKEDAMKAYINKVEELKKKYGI
UniProt Q92564: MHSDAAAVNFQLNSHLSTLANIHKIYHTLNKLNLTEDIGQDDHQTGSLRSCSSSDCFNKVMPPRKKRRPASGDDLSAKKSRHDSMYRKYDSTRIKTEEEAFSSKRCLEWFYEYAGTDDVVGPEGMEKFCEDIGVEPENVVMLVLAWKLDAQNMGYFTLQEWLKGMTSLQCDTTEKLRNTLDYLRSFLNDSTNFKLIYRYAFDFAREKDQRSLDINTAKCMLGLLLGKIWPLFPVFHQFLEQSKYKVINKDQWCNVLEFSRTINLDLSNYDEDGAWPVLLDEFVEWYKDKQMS

The targets below were run with CS(=O)(=O)CCNCc1ccc(-c2ccc3ncnc(Nc4ccc(OCc5cccc(F)c5)c(Cl)c4)c3c2)o1 [lapatinib] (assay: log2 fold change, soluble protein after heating vs DMSO (PISA); higher = thermal stabilisation; K562 lysate, 10 uM; active = over 0.2 and 3.5 SD of the protein, either way, in both replicates (recomputed)).
In short: (§1)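 A 30 min treatment with 10 μM compound was applied to crude K562 extract at 1 mg/mL protein in PBS pH 7.4 with 1 mM MgCl2. Heating for 3 min spanned 48°C-58°C, after which aliquots were pooled, adjusted to 0.5% NP-40 at 4°C and spun at 21,000xg for 90 min. TMTpro 16plex LC-MS/MS of the supernatant, with channel sums equalised, gave values recorded as log-two fold change in thermal stability against solvent controls, from duplicates.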

Target | log2 fold change
DDRGK1 (UniProt Q96HY6) | inactive: -0.021
DCTN1 (UniProt Q14203) | inactive: -0.005
DCTN2 (UniProt Q13561) | inactive: 0.025
DDX21 (UniProt Q9NR30) | inactive: -0.006
DCXR (UniProt Q7Z4W1) | inactive: -0.014
DDX20 (UniProt Q9UHI6) | inactive: -0.041
DEF6 (UniProt Q9H4E7) | inactive: -0.021
DCTN3 (UniProt O75935) | inactive: -0.019
DENND4C (UniProt Q5VZ89) | inactive: 0.066
DDB1 (UniProt Q16531) | inactive: -0.005
DFFA (UniProt O00273) | inactive: 0.021
DCP2 (UniProt Q8IU60) | inactive: -0.027
DDX54 isoform 2 (UniProt Q8TDD1) | inactive: -0.03
CYSTM1 (UniProt Q9H1C7) | inactive: -0.019
DEK (UniProt P35659) | inactive: -0.008
DCTD isoform 2 (UniProt P32321) | inactive: -0.015
DDHD1 (UniProt Q8NEL9) | inactive: -0.06
CYP24A1 (UniProt Q07973) | inactive: -0.099
D2HGDH (UniProt Q8N465) | inactive: 0.04
DAD1 (UniProt P61803) | inactive: -0.064

Target | log2 fold change
DERL1 (UniProt Q9BUN8) | inactive: 0.013
DECR1 (UniProt Q16698) | inactive: -0.004
DCAF17 (UniProt Q5H9S7) | inactive: 0.061
DCTPP1 (UniProt Q9H773) | inactive: 0.007
DDX24 (UniProt Q9GZR7) | inactive: 0.021
DDX56 (UniProt Q9NY93) | inactive: -0.035
DARS (UniProt P14868) | inactive: 0.002
DBN1 (UniProt Q16643) | inactive: -0.02
DDX39A (UniProt O00148) | inactive: -0.004
DCAF15 (UniProt Q66K64) | inactive: 0.02
DBI isoform 5 (UniProt P07108) | inactive: 0.158
DDX46 (UniProt Q7L014) | inactive: 0.009
DDX10 (UniProt Q13206) | inactive: -0.224
DCUN1D4 isoform 3 (UniProt Q92564) | inactive: 0.072
DDX27 (UniProt Q96GQ7) | inactive: -0.004
DENND4A isoform 2 (UniProt Q7Z401) | inactive: -0.034
DAPK2 isoform 2 (UniProt Q9UIK4) | inactive: -0.168
DDX39B (UniProt H0Y400) | inactive: 0.091
DAG1 (UniProt Q14118) | inactive: -0.004

What follows are targets tested with CS(=O)(=O)N1CCN(Cc2cc3nc(-c4cccc5[nH]ncc45)nc(N4CCOCC4)c3s2)CC1 [pictilisib] in the same assay as above.
In short: as §1

Target | log2 fold change
DDRGK1 (UniProt Q96HY6) | inactive: -0.07
DCTN1 (UniProt Q14203) | inactive: -0.021
DCTN2 (UniProt Q13561) | inactive: 0.031
DDX21 (UniProt Q9NR30) | inactive: 0.002
DCXR (UniProt Q7Z4W1) | inactive: -0.031
DDX20 (UniProt Q9UHI6) | inactive: 0.024
DEF6 (UniProt Q9H4E7) | inactive: 0.057
DCTN3 (UniProt O75935) | inactive: 0.009
DENND4C (UniProt Q5VZ89) | inactive: 0.006
DDB1 (UniProt Q16531) | inactive: 0
DFFA (UniProt O00273) | inactive: 0.007
DCP2 (UniProt Q8IU60) | inactive: 0.011
DDX54 isoform 2 (UniProt Q8TDD1) | inactive: 0.075
CYSTM1 (UniProt Q9H1C7) | inactive: -0.178
DEK (UniProt P35659) | inactive: 0.004
DCTD isoform 2 (UniProt P32321) | inactive: -0.046
DDHD1 (UniProt Q8NEL9) | inactive: 0.096
CYP24A1 (UniProt Q07973) | inactive: 0.015

Target | log2 fold change
D2HGDH (UniProt Q8N465) | inactive: -0.033
DAD1 (UniProt P61803) | inactive: 0.069
DERL1 (UniProt Q9BUN8) | inactive: -0.067
DECR1 (UniProt Q16698) | inactive: -0.045
DCTPP1 (UniProt Q9H773) | inactive: -0.088
DDX24 (UniProt Q9GZR7) | inactive: 0.013
DDX56 (UniProt Q9NY93) | inactive: 0.006
DARS (UniProt P14868) | inactive: 0
DBN1 (UniProt Q16643) | inactive: 0.011
DDX39A (UniProt O00148) | inactive: 0.021
DCAF15 (UniProt Q66K64) | inactive: -0.147
DBI isoform 5 (UniProt P07108) | inactive: 0.012
DDX46 (UniProt Q7L014) | inactive: 0.003
DDX10 (UniProt Q13206) | inactive: -0.114
DCUN1D4 isoform 3 (UniProt Q92564) | inactive: 0.046
DDX27 (UniProt Q96GQ7) | inactive: -0.021
DENND4A isoform 2 (UniProt Q7Z401) | inactive: 0.001
DAG1 (UniProt Q14118) | inactive: 0.018
